No constants are given. Whether binding was seen depends on the method and setting. Some results given as binding are weak or reduced against the parent protein; the word gives no strength.

These results are taken from patent publication US20090123572A1.

The target of this assay is T1, purified caspase-14 from human cornified cells (heterodimer of 17 KDa large subunit and 11 KDa small subunit) (human) (UniProt P31944).
T1 sequence (looked up) 1: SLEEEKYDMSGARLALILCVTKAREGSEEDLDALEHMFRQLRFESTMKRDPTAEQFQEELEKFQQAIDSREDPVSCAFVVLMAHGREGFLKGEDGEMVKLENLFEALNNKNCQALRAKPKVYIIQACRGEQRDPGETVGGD
T1 sequence (looked up) 2: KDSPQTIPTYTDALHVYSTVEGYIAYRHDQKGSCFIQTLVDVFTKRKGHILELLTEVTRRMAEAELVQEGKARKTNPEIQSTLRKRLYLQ
The assay is described as follows: inferred from lasting inhibition of ICAD decomposition by caspase-14 (Western blot). (In general: In western blotting, separated proteins are transferred to a membrane and probed.)

B1: recombinant squamous cell carcinoma antigen 1 (SCCA-1) (protein, human, UniProt P29508 1-390, looked up)
chain: MNSLSEANTKFMFDLFQQFRKSKENNIFYSPISITSALGMVLLGAKDNTAQQIKKVLHFDQVTENTTGKAATYHVDRSGNVHHQFQKLLTEFNKSTDAYELKIANKLFGEKTYLFLQEYLDAIKKFYQTSVESVDFANAPEESRKKINSWVESQTNEKIKNLIPEGNIGSNTTLVLVNAIYFKGQWEKKFNKEDTKEEKFWPNKNTYKSIQMMRQYTSFHFASLEDVQAKVLEIPYKGKDLSMIVLLPNEIDGLQKLEEKLTAEKLMEWTSLQNMRETRVDLHLPRFKVEESYDLKDTLRTMGMVDIFNGDADLSGMTGSRGLVLSGVLHKAFVEVTEEGAEAAAATAVVGFGSSPTSTNEEFHCNHPFLFFIRQNKTNSILFYGRFSSP
As to B1, the binding entry is listed as “binds”.
